For at least one compound, name, drawing or mass did not settle the structure.
Target: T1, recombinant guanylate cyclase reporter cell line (Rattus norvegicus, UniProt P19686+P20595)
T1 construct: expressed in transfected cells
T1 sequence (P19686 1-690): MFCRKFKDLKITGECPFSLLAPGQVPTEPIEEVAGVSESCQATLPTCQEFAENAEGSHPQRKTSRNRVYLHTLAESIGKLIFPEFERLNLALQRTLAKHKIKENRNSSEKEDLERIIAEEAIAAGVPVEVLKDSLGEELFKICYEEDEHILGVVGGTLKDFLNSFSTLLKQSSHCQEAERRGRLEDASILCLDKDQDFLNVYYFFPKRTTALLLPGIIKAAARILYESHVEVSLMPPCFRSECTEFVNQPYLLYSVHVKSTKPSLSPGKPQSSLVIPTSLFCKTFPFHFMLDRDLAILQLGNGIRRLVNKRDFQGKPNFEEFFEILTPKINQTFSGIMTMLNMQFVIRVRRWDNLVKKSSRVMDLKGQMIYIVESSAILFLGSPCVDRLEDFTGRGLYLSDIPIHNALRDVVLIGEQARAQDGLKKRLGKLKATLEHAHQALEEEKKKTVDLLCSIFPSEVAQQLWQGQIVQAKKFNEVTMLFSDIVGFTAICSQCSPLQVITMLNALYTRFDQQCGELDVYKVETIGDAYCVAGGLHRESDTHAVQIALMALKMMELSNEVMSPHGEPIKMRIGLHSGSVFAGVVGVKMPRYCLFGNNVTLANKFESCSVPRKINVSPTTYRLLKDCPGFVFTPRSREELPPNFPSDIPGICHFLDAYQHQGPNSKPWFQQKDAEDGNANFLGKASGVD
T1 sequence (P20595 1-619): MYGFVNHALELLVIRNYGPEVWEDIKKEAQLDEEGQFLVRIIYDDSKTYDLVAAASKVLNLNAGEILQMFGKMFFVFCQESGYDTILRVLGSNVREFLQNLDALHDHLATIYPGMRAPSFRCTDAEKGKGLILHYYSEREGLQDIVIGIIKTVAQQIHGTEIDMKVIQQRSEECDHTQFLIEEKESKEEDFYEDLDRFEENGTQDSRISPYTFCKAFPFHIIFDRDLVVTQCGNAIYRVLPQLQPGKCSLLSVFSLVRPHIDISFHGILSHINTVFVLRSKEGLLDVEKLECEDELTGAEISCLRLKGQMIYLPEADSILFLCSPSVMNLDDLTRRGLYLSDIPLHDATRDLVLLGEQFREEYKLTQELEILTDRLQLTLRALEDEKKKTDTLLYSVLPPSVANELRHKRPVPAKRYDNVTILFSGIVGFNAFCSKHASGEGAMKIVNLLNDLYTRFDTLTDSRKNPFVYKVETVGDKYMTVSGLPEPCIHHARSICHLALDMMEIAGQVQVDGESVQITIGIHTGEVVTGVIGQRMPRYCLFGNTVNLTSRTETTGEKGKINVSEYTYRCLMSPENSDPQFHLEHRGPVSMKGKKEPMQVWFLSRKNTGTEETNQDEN
Assay: Effect on a recombinant guanylate cyclase reporter cell line
Format: cell-based
Settings: MEC = minimum effective concentration; in some cases mean values for individual determinations
Method: B-2. Effect on a Recombinant Guanylate Cyclase Reporter Cell Line
The cellular action of the compounds of the invention is determined using a recombinant guanylate cyclase reporter cell line, as described in F. Wunder et al., Anal. Biochem. 339, 104-112 (2005).
Representative MEC values (MEC=minimum effective concentration) for the compounds of the invention are shown in the table below (in some cases as mean values for individual determinations): […]

Cc1cn2c(C(=O)NCC(C)(N)CCF)c(C)nc2c(OCc2c(F)cccc2F)n1 (racemic) [Example 43, rac-N-(2-Amino-fluoro-2-methylbutyl)-8-[(2,6-difluorobenzyl)oxy]-2,6-dimethylimidazo[1,2-a]pyrazine-3-carboxamide]
MEC: 1 µM

— patent publication US20160176880A1, “SUBSTITUTED IMIDAZO[1,2-A]PYRAZINECARBOXAMIDES AND USE THEREOF” (BAYER PHARMA AKTIENGESELLSCHAFT, priority 2013, published 2016)
